# The other results are listed elsewhere or left out.
# How the values were obtained:
# Assay in all cases: glycan array binding signal (z-score within array); higher = stronger binding
# Conditions in all cases: glycan notation: IUPAC condensed, linker removed
# [1] = molecular target: Neu5Ac(a2-3)Gal(b1-4)GlcNAc(b1-6)GalNAc
# Summary of the method: (§1)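 The Consortium for Functional Glycomics database supplied 3228 glycan arrays, of which those lacking an available protein sequence were dropped. The binding signal, a within-array Z-score, was averaged across arrays of the same protein sequence and across linkers. Negative scores can be read as non-binding.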
# [2] = molecular target: Neu5Ac(a2-3)Gal(b1-4)GlcNAc(b1-6)[Gal(b1-3)]GalNAc
# Summary of the method: as §1
# [3] = molecular target: Neu5Ac(a2-3)Gal(b1-4)GlcNAc(b1-6)[Neu5Ac(a2-3)Gal(b1-3)]GalNAc
# Summary of the method: as §1
# [4] = molecular target: Neu5Ac(a2-3)Gal(b1-4)GlcNAc6S
# Summary of the method: as §1
# [5] = molecular target: Neu5Ac(a2-3)Gal(b1-4)[Fuc(a1-3)]GlcNAc
# Summary of the method: as §1
# [6] = molecular target: Neu5Ac(a2-3)Gal(b1-4)[Fuc(a1-3)]GlcNAc(b1-2)Man
# Summary of the method: as §1
# [7] = molecular target: Neu5Ac(a2-3)Gal(b1-4)[Fuc(a1-3)]GlcNAc(b1-3)Gal
# Summary of the method: as §1
# [8] = molecular target: Neu5Ac(a2-3)Gal(b1-4)[Fuc(a1-3)]GlcNAc(b1-3)Gal(b1-4)GlcNAc
# Summary of the method: as §1
# [9] = molecular target: Neu5Ac(a2-3)Gal(b1-4)[Fuc(a1-3)]GlcNAc(b1-3)Gal(b1-4)[Fuc(a1-3)]GlcNAc(b1-3)Gal(b1-4)[Fuc(a1-3)]GlcNAc
# Summary of the method: as §1
# [10] = molecular target: Neu5Ac(a2-3)Gal(b1-4)[Fuc(a1-3)]GlcNAc(b1-3)GalNAc
# Summary of the method: as §1
# [11] = molecular target: Neu5Ac(a2-3)Gal(b1-4)[Fuc(a1-3)]GlcNAc(b1-6)[Gal(b1-3)]GalNAc
# Summary of the method: as §1
# [12] = molecular target: Neu5Ac(a2-3)Gal(b1-4)[Fuc(a1-3)]GlcNAc(b1-6)[Neu5Ac(a2-3)Gal(b1-3)]GalNAc
# Summary of the method: as §1
# [13] = molecular target: Neu5Ac(a2-3)Gal(b1-4)[Fuc(a1-3)]GlcNAc6S
# Summary of the method: as §1
# [14] = molecular target: Neu5Ac(a2-3)Gal6S(b1-4)GlcNAc
# Summary of the method: as §1
# [15] = molecular target: Neu5Ac(a2-3)Gal6S(b1-4)[Fuc(a1-3)]GlcNAc
# Summary of the method: as §1
# Neu5Ac(a2-3)GalNAc = molecular target: Neu5Ac(a2-3)GalNAc
# Summary of the method: as §1
# [16] = molecular target: Neu5Ac(a2-3)GalNAc(b1-4)GlcNAc
# Summary of the method: as §1
# [17] = molecular target: Neu5Ac(a2-3)[GalNAc(b1-4)]Gal(b1-4)Glc
# Summary of the method: as §1
# [18] = molecular target: Neu5Ac(a2-3)[GalNAc(b1-4)]Gal(b1-4)GlcNAc
# Summary of the method: as §1
# [19] = molecular target: Neu5Ac(a2-3)[GalNAc(b1-4)]Gal(b1-4)GlcNAc(b1-3)GalNAc
# Summary of the method: as §1
# [20] = molecular target: Neu5Ac(a2-3)[Neu5Ac(a2-6)]GalNAc
# Summary of the method: as §1
# Neu5Ac(a2-6)Gal = molecular target: Neu5Ac(a2-6)Gal
# Summary of the method: as §1
# [21] = molecular target: Neu5Ac(a2-6)Gal(b1-3)GlcNAc(b1-3)[Gal(b1-4)GlcNAc(b1-6)]Gal(b1-4)Glc
# Summary of the method: as §1
# Neu5Ac(a2-6)Gal(b1-4)Glc = molecular target: Neu5Ac(a2-6)Gal(b1-4)Glc
# Summary of the method: as §1
# [22] = molecular target: Neu5Ac(a2-6)Gal(b1-4)GlcNAc
# Summary of the method: as §1
# [23] = molecular target: Neu5Ac(a2-6)Gal(b1-4)GlcNAc(b1-2)Man
# Summary of the method: as §1
# [24] = molecular target: Neu5Ac(a2-6)Gal(b1-4)GlcNAc(b1-2)Man(a1-3)Man(b1-4)GlcNAc(b1-4)GlcNAc
# Summary of the method: as §1
# [25] = molecular target: Neu5Ac(a2-6)Gal(b1-4)GlcNAc(b1-2)Man(a1-3)[Gal(b1-4)GlcNAc(b1-2)Man(a1-6)]Man(b1-4)GlcNAc(b1-4)GlcNAc
# Summary of the method: as §1
# [26] = molecular target: Neu5Ac(a2-6)Gal(b1-4)GlcNAc(b1-2)Man(a1-3)[GlcNAc(b1-2)Man(a1-6)]Man(b1-4)GlcNAc(b1-4)GlcNAc
# Summary of the method: as §1
# [27] = molecular target: Neu5Ac(a2-6)Gal(b1-4)GlcNAc(b1-2)Man(a1-3)[GlcNAc(b1-4)][Neu5Ac(a2-6)Gal(b1-4)GlcNAc(b1-2)Man(a1-6)]Man(b1-4)GlcNAc(b1-4)GlcNAc
# Summary of the method: as §1
# [28] = molecular target: Neu5Ac(a2-6)Gal(b1-4)GlcNAc(b1-2)Man(a1-3)[Man(a1-6)]Man(b1-4)GlcNAc(b1-4)GlcNAc
# Summary of the method: as §1
binder,measurement,setting,value
GS7807Q-bfa-507-19-507 (Bacteroides fragilis) (protein) ASCNKFDDLNTNPDAATKVTAPMLATKLILNITQQGSAKNFVYHSMLSKQIAWSENASDEQYNLFGRTDFDGYTILTNCQKMVDAANEGDKDSYAALAKFMKAYKLFYKSLEVGDIPYSDALKGEEGVQKPKYDTQKEVMRQVLEDLEEAYTLFSSGSDFDGDPIFGGDTENWKKTVVAFELKVLTHLCKKDTDADLKVKERFARLVSSGSLMTSNADNFQLVYSNKAGQLYPFYYTQNKHSDYLMMSSVIIDNLKKFNDYRMFYYASPAKAQTDKGIKDSEWDAYLSIDPSDSYSNISVLYGKGEFCLANLRYTRVPEGEPLMRLSYAEQNFILAEGAVRGWISEDASTYYKKGIEASMNFIADNTPDKEEYTHGRTITQEYIQEYLAQPVIQLSGDKEKDLEMILLQRYLASFLQHPYDAYYDYRRTGYPVLPINPSTNLNTEKNKIPTRWMYPEAEFSYNPDNANEAVQRQYNGSDDVNKLMWILQ,glycan array binding signal (z-score),[1],-0.432
same,glycan array binding signal (z-score),[2],-0.644
same,glycan array binding signal (z-score),[3],0.149
same,glycan array binding signal (z-score),[4],-0.528
same,glycan array binding signal (z-score),[5],-0.529
same,glycan array binding signal (z-score),[6],-0.41
same,glycan array binding signal (z-score),[7],-0.844
same,glycan array binding signal (z-score),[8],-0.425
same,glycan array binding signal (z-score),[9],0.079
same,glycan array binding signal (z-score),[10],0.207
same,glycan array binding signal (z-score),[11],-0.076
same,glycan array binding signal (z-score),[12],2.04
same,glycan array binding signal (z-score),[13],-1.18
same,glycan array binding signal (z-score),[14],1.46
same,glycan array binding signal (z-score),[15],0.054
same,glycan array binding signal (z-score),Neu5Ac(a2-3)GalNAc,0.488
same,glycan array binding signal (z-score),[16],0.47
same,glycan array binding signal (z-score),[17],0.995
same,glycan array binding signal (z-score),[18],-0.569
same,glycan array binding signal (z-score),[19],1.36
same,glycan array binding signal (z-score),[20],-0.831
same,glycan array binding signal (z-score),Neu5Ac(a2-6)Gal,-0.94
same,glycan array binding signal (z-score),[21],-0.029
same,glycan array binding signal (z-score),Neu5Ac(a2-6)Gal(b1-4)Glc,0.414
same,glycan array binding signal (z-score),[22],-0.024
same,glycan array binding signal (z-score),[23],-0.547
same,glycan array binding signal (z-score),[24],-0.09
same,glycan array binding signal (z-score),[25],0.062
same,glycan array binding signal (z-score),[26],-0.637
same,glycan array binding signal (z-score),[27],-0.488
same,glycan array binding signal (z-score),[28],-0.517

# Part of the list above, with tabs.
binder	measurement	setting	value
GS7807Q-bfa-507-19-507 (Bacteroides fragilis) (protein) ASCNKFDDLNTNPDAATKVTAPMLATKLILNITQQGSAKNFVYHSMLSKQIAWSENASDEQYNLFGRTDFDGYTILTNCQKMVDAANEGDKDSYAALAKFMKAYKLFYKSLEVGDIPYSDALKGEEGVQKPKYDTQKEVMRQVLEDLEEAYTLFSSGSDFDGDPIFGGDTENWKKTVVAFELKVLTHLCKKDTDADLKVKERFARLVSSGSLMTSNADNFQLVYSNKAGQLYPFYYTQNKHSDYLMMSSVIIDNLKKFNDYRMFYYASPAKAQTDKGIKDSEWDAYLSIDPSDSYSNISVLYGKGEFCLANLRYTRVPEGEPLMRLSYAEQNFILAEGAVRGWISEDASTYYKKGIEASMNFIADNTPDKEEYTHGRTITQEYIQEYLAQPVIQLSGDKEKDLEMILLQRYLASFLQHPYDAYYDYRRTGYPVLPINPSTNLNTEKNKIPTRWMYPEAEFSYNPDNANEAVQRQYNGSDDVNKLMWILQ	glycan array binding signal (z-score)	[13]	-1.18
same	glycan array binding signal (z-score)	[14]	1.46

# Source: the supplement of paper PMC8728848
